Assay results: patent US9539300B2, “Modulating disease through genetic engineering of plants” (The Regents of the University of California, priority 2012, dated 2017)
Not every detail of the peptide structures is certain; ends, links or a residue may be inferred. Ends that are not written are not given here.

Experiments:
apoE−/− mice [1] = test: 6F without end blocking groups fed to apoE−/− mice; assay type: in vivo; details: for percent of the aorta with atherosclerotic lesions: 7 weeks (FIG. 16C)
apoE−/− mice [2] = test: 6F mixed with homogenized tomato in WD, apoE−/− mice; assay type: in vivo; details: for plasma lysophosphatidic acid (LPA) levels: apoE−/−, WD with 10% ripened tomato homogenate, 60 mg/kg/day, 3 weeks (FIG. 28B)
human artery wall cells = details: cited from earlier work
LDLR−/− mice = test: 6F mixed with homogenized tomato in WD, LDLR−/− mice; assay type: in vivo; details: WD with 10% ripened tomato homogenate, 60 mg/kg/day, 3 weeks (FIG. 28B)

## DWLKAFYDKFFEKFKEFF [6F, D-W-L-K-A-F-Y-D-K-F-F-E-K-F-K-E-F-F]
apoE−/− mice [1]; in WD, 60 mg/kg/day, 6 weeks (FIG. 16B)
  plasma SAA levels: decreased
apoE−/− mice [1]; in WD, 60 mg/kg/day
  percent of the aorta with atherosclerotic lesions: decreased
apoE−/− mice [1]; in WD, 60 mg/kg/day, listed as L-6F
  percent of the aorta with atherosclerotic lesions: significant decrease
apoE−/− mice [1]; in chow, ~60 mg/kg/day, 10 days (FIG. 3, 16A)
  plasma SAA levels: significantly decreased
apoE−/− mice [1]; in chow, ~60 mg/kg/day, 10 days (FIG. 3, 16A), listed as L-6F
  plasma SAA levels: reduces
apoE−/− mice [2]; 60 mg/kg/day added to homogenized ripened tomato, 20% of WD, one week (FIG. 28A)
  plasma SAA levels: still biologically active
apoE−/− mice [2]
  plasma lysophosphatidic acid (LPA) levels: significant decrease
apoE−/− mice [2]; listed as L-6F
  plasma lysophosphatidic acid (LPA) levels: significantly decreased
Human artery wall cells; Datta et al. (2001)
  inhibition of LDL-induced MCP-1 production by cultured human artery wall cells: able to efficiently inhibit
Human artery wall cells; FIG. 1, adapted from Datta et al. (2001)
  inhibiting monocyte chemotactic activity production by human artery wall cells exposed to human LDL: indistinguishable
LDLR−/− mice
  plasma lysophosphatidic acid (LPA) levels: significant decrease
LDLR−/− mice; listed as L-6F
  plasma lysophosphatidic acid (LPA) levels: significantly decreased
